Changes are numbered by the printed parent chain. No constants are given. Whether binding was seen depends on the method and setting. In cells and extracts the contact can be indirect. Here binding means that the protein was enriched with, or labelled near, the bait; the list need not be complete. For some of these results: No binding means not detected with the bait. Where a sequence is shown, tags or fusion partners need not be part of it.
What was measured:
Assay in all cases: proximity labelling
[1] = molecular target: T1, TurboID fusion to TRIP6-Δ252-277 (UniProt Q15654)
T1 sequence: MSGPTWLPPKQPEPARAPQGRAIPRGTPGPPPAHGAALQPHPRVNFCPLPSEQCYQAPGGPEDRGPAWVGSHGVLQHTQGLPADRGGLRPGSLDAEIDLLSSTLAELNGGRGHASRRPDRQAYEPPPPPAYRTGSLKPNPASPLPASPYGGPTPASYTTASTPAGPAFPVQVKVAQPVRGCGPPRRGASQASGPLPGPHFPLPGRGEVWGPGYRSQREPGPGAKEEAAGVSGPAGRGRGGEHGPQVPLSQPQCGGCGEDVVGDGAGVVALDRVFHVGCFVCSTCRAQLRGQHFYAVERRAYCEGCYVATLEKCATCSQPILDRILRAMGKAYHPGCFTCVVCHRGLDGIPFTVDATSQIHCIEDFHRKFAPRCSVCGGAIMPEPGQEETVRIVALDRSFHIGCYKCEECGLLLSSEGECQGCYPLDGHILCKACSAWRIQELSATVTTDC

Protein sequences, listed by entry. Tags and fused reporters are not part of them.
UniProt P35221: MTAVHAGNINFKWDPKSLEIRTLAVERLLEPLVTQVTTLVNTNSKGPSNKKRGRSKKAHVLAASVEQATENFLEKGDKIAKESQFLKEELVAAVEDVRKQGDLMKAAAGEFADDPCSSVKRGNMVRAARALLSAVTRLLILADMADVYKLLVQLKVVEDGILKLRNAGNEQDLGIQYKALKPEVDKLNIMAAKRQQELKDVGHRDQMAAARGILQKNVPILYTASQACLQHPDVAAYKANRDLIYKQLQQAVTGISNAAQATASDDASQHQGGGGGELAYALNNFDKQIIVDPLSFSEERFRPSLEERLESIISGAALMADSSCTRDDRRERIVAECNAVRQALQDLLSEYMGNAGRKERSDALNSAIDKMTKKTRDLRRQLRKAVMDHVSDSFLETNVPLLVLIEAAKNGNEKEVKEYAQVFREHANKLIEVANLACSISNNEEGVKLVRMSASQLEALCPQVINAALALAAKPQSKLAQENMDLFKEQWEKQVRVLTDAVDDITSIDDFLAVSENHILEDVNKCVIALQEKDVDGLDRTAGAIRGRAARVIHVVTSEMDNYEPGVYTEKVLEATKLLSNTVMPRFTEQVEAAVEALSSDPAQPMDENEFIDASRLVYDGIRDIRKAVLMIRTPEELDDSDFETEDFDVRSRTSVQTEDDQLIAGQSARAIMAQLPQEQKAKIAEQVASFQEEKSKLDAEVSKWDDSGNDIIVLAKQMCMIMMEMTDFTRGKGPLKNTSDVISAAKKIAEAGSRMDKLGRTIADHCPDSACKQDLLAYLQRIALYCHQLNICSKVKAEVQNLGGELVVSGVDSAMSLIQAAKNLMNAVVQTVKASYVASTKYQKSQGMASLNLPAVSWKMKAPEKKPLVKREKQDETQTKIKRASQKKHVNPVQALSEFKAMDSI
UniProt P04406: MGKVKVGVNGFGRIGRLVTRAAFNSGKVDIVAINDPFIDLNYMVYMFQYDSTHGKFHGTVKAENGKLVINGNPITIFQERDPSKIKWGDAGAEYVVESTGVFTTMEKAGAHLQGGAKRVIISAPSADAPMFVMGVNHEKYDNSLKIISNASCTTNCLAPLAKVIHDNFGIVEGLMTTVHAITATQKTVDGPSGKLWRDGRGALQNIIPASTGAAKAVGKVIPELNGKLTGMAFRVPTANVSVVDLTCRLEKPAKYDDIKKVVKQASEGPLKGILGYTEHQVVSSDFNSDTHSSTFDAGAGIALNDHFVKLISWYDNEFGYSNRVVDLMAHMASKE
UniProt Q9UGP4: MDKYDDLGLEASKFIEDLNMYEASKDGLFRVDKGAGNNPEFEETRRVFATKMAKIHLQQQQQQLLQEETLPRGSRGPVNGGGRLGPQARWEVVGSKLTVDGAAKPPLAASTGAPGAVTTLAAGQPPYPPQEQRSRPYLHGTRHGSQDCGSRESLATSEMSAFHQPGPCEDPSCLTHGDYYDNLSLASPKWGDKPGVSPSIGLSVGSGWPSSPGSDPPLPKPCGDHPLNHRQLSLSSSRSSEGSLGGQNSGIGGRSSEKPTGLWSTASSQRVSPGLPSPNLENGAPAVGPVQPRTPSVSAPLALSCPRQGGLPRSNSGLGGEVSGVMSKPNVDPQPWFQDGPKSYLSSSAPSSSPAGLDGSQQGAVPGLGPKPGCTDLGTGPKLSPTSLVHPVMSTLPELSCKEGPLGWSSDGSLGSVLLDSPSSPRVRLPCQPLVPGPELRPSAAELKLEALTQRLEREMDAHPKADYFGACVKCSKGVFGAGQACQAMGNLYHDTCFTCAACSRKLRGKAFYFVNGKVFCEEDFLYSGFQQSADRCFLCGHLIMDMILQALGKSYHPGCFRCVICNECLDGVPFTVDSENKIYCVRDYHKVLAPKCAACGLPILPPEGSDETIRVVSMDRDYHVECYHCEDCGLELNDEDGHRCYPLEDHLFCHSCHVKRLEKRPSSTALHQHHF

[2] = molecular target: T2, TurboID fusion to wild-type TRIP6 (UniProt Q15654)
T2 sequence: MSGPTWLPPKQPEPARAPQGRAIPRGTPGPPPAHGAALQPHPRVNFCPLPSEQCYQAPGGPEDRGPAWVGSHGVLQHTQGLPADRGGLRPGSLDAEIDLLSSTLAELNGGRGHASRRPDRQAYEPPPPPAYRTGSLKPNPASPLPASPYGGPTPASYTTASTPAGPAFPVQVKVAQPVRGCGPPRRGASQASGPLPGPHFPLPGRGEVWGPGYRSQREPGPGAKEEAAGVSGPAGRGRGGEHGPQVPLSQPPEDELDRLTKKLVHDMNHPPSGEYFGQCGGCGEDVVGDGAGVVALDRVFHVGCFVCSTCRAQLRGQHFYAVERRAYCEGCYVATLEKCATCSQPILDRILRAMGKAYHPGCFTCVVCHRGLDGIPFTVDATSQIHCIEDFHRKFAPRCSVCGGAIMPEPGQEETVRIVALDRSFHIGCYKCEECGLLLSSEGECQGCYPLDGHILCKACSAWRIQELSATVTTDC

[3] = molecular target: T3, TurboID fusion to TRIP6-mut1,2,3 (UniProt Q15654)
T3 sequence: T2 sequence with F319A, F377A, Y449A

Row | Substance | binding [1] | binding [2] | binding [3]
1 | α-E catenin (from UniProt P35221 1-906) | binds weakly | binds weakly | 
2 | GAPDH (from UniProt P04406 1-335) (enzyme) | no binding | no binding | 
3 | LIMD1 (from UniProt Q9UGP4 1-676) | binds | binds | binds

Reference: publication doi:10.1101/2023.10.12.562097
